Laboratory results as given in paper PMC7819943, “Rice protein-binding microarrays: a tool to detect cis-acting elements near promoter regions in rice”.
The list shows a part of the results.

Sequences of proteins named here, by UniProt entry; tags and fusion partners are left off.
UniProt Q0JBA9, entry or part of it: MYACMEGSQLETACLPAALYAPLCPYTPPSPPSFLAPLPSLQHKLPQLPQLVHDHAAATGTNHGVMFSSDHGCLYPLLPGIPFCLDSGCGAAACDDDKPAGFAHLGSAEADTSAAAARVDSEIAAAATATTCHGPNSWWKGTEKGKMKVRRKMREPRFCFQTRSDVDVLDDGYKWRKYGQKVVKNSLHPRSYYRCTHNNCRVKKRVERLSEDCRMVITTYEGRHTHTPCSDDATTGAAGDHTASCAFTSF

biological target: OsWRKY34 (Oryza sativa, UniProt Q0JBA9 1-250); experiment: protein-binding microarray (RPBM); PBS, 2% BSA, 51.3 ng/ul salmon testes DNA, 50 uM zinc acetate, 200 nM TF, 25 C, 1 h; high values mean tight binding; conditions: protein: recombinant; tags: N-terminal polyhistidine and DsRed monomer fusion (pET32a); label: CyDye5-dUTP incorporated in the synthesized complementary strand; 3' TTTTT single-stranded linker to array surface; dsDNA, one strand shown
Outline: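 An Axon 4000B scanner gave the binding signal as per-feature fluorescence intensity in arbitrary units. This followed washing of a custom Agilent array that had been incubated for 1 h at 25 °C with 200 nM protein in PBS, 2% BSA, salmon testes DNA and 50 µM zinc acetate. The proteins were transcription factors fused at the N-terminus to polyhistidine and DsRed, expressed in E. coli BL21-CodonPlus and purified on Ni–NTA.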

First: TCTACACATTTTTTTTGACGCCTCTGTTCGTGGCATTCGTCGGAGTCACCTAGTGCAG
Second: TTCGTTTGACCAATGCTGTTACTGCCCTATATAAACCTTCCGGAGTCACCTAGTGCAG
The binding signal of the first is higher: 12700 fluorescence intensity (a.u.) for the first, 11900 fluorescence intensity (a.u.) for the second.

First: ATTGAGAGGGTTTGAAAGGGGTTGATGTGTGGTGAAGGGTCGGAGTCACCTAGTGCAG
Second: ACGCCACCCGCGTCCTATCCATTCCACGGTTCGTTTCCACCGGAGTCACCTAGTGCAG
The binding signal of the first is lower: 9210 fluorescence intensity (a.u.) for the first, 9290 fluorescence intensity (a.u.) for the second.

Going from “AGGGCTTTCGGTTTTTTGGTTTTCCTTTCGTCACCGTCTCCGGAGTCACCTAGTGCAG” to “ATCCACCCTCTATTCATCTACTCGGTTAGATGATCATTCACGGAGTCACCTAGTGCAG”, the binding signal falls from 9140 fluorescence intensity (a.u.) to 8130 fluorescence intensity (a.u.).

Going from “TCTTCGGTTTACTTATGTCCTGGCTGGTTGGGAGGGGACACGGAGTCACCTAGTGCAG” to “AGAGTTCACATCTACGATTTGGTTGCTTGCATTCTCGCCACGGAGTCACCTAGTGCAG”, the binding signal falls from 19100 fluorescence intensity (a.u.) to 8370 fluorescence intensity (a.u.).

Going from “CGTTGGAAAGCTACTGTTTTGACCCGTTCACACCACTACGCGGAGTCACCTAGTGCAG” to “CCTATCTGTTACTTTGGTATTGCAGCTTGTTTGCTTCTAGCGGAGTCACCTAGTGCAG”, the binding signal falls from 9680 fluorescence intensity (a.u.) to 8380 fluorescence intensity (a.u.).

First: AACAAACCAACCTAGGATACTACTGTCAATTTTCACAACCCGGAGTCACCTAGTGCAG
Second: GATTTTGCTATACATCACTCGGGTGATTCTTTGCCTGATACGGAGTCACCTAGTGCAG
The binding signal of the first is higher: 9280 fluorescence intensity (a.u.) for the first, 8620 fluorescence intensity (a.u.) for the second.

Going from “TTTATTCTTTTTATATCATTTGATTCATTGTTAAATATACCGGAGTCACCTAGTGCAG” to “GGGTCGGCCGGGGTGTCCGGTTGTCCAGCTGCCAGATTCACGGAGTCACCTAGTGCAG”, the binding signal rises from 8220 fluorescence intensity (a.u.) to 8460 fluorescence intensity (a.u.).

Compared with “CGCCGAGCCGCCGCCTCTGCTTCCGGGCCAGCCAACCTTTCGGAGTCACCTAGTGCAG”, “GGCGATAGGGAGAGGGAGGAGTGGGTGGAGGAAGCGGATACGGAGTCACCTAGTGCAG” is lower in binding signal: 9140 fluorescence intensity (a.u.) for the first, 8840 fluorescence intensity (a.u.) for the second.

First: GGCCGAAGCAGTGGTTTTCAAGTTGCGCCAACACATCGTCCGGAGTCACCTAGTGCAG
Second: AATCGCGATCCCTTGTGCTCACATCCCAAGCTTCCCAAGCCGGAGTCACCTAGTGCAG
The binding signal of the first is higher: 8950 fluorescence intensity (a.u.) for the first, 8170 fluorescence intensity (a.u.) for the second.

First: TTGTGTGTTGTAGTGGTGAGTGGTGTTTTGATGGTTTCTGCGGAGTCACCTAGTGCAG
Second: CGACACCAATTTTGTTACAACTGGCACAGCCCACCTTAATCGGAGTCACCTAGTGCAG
The binding signal of the first is higher: 8460 fluorescence intensity (a.u.) for the first, 8350 fluorescence intensity (a.u.) for the second.

Going from “AATCTTTTATACATATAATCCCTCCGTTTCTAAATATTTACGGAGTCACCTAGTGCAG” to “GGTCCTTCTGCCTCTGTTTATGTTTTCCTGTTATTTCTGTCGGAGTCACCTAGTGCAG”, the binding signal rises from 8110 fluorescence intensity (a.u.) to 11200 fluorescence intensity (a.u.).

Compared with “TTCGTTTGACTTTTGCCGTTTCAAATTTGAATTCTCGAAACGGAGTCACCTAGTGCAG”, “GTTTCATAATCCTGTGTTCTTTTTGTTTACTATGGTTTTGCGGAGTCACCTAGTGCAG” is higher in binding signal: 9080 fluorescence intensity (a.u.) for the first, 11000 fluorescence intensity (a.u.) for the second.

Compared with “GGATATCCGGTTTTGTGGTTGGGTGACGATTTTGTAATTCCGGAGTCACCTAGTGCAG”, “TCTCTCTCTCTCTCGCCATCGTCACTGCGGCTGCTGCTGCCGGAGTCACCTAGTGCAG” is lower in binding signal: 9010 fluorescence intensity (a.u.) for the first, 8310 fluorescence intensity (a.u.) for the second.

Compared with “ATCTTGTCATTTTACCATCCGTGTCTGTCGGACTCATGTCCGGAGTCACCTAGTGCAG”, “GCCAGACAAGAACGGGAATAAGCAAATTGTTTGGTGGAACCGGAGTCACCTAGTGCAG” is lower in binding signal: 9280 fluorescence intensity (a.u.) for the first, 8940 fluorescence intensity (a.u.) for the second.

Going from “ACTCCACAACTCCACAAGCTTCCTGTCCAGTCTCCACTCGCGGAGTCACCTAGTGCAG” to “AACCCTAGCTCTTCACAGCTTCCATGGCTCTTCTCTCTCTCGGAGTCACCTAGTGCAG”, the binding signal rises from 8820 fluorescence intensity (a.u.) to 12500 fluorescence intensity (a.u.).

First: CACTCCCATTCCCATCCTCCACATCCCGCGCCATCGACCTCGGAGTCACCTAGTGCAG
Second: TCTTTTGTGCATTTGTACTAATATGTTATGTTTGAGTATACGGAGTCACCTAGTGCAG
The binding signal of the first is higher: 8520 fluorescence intensity (a.u.) for the first, 8160 fluorescence intensity (a.u.) for the second.

Going from “TTGAGAAGCCTCTGGAACACCTGCGATCCGTCCATCGTCTCGGAGTCACCTAGTGCAG” to “GCCGTCACATTTATGCCACATCATTTTTTTTTCTTTTTTTCGGAGTCACCTAGTGCAG”, the binding signal rises from 8340 fluorescence intensity (a.u.) to 11100 fluorescence intensity (a.u.).

Compared with “ATATGCTATACTTTATCAATGTTCTTGCCTTTATTTTCCACGGAGTCACCTAGTGCAG”, “GTCTGTACCGGTTCTTCAAATCAACCAGCACGATGTATTACGGAGTCACCTAGTGCAG” is lower in binding signal: 9590 fluorescence intensity (a.u.) for the first, 8650 fluorescence intensity (a.u.) for the second.

Going from “CTTCTTGGGCTTGGTGTACGTCTTCTTCTTGCGCTTCTTGCGGAGTCACCTAGTGCAG” to “CCTCCGAATTGATATTTTGTTTTGAGAGATCTTGTTTACTCGGAGTCACCTAGTGCAG”, the binding signal falls from 9830 fluorescence intensity (a.u.) to 8310 fluorescence intensity (a.u.).

First: CTCACATACGCTTGTTAACCCTTTCTTTCACGTGATGACTCGGAGTCACCTAGTGCAG
Second: CTGTTCTTGTACGTGTCATCGCCGCCGACCCAACCTGACCCGGAGTCACCTAGTGCAG
The binding signal of the first is higher: 8200 fluorescence intensity (a.u.) for the first, 8150 fluorescence intensity (a.u.) for the second.

Compared with “GACAGAGCTTGTTGACTATCAAGCGCTCCGTTCTGACTTCCGGAGTCACCTAGTGCAG”, “CCCCACCCACCCCAACACAACACACGCGGTCACCTTCCCCCGGAGTCACCTAGTGCAG” is lower in binding signal: 8920 fluorescence intensity (a.u.) for the first, 8070 fluorescence intensity (a.u.) for the second.
